From publication PMC9243176, “Multifaceted regulation of the sumoylation of the Sgs1 DNA helicase” (The Journal of Biological Chemistry, 2022)
These are yes or no findings as the source states them, for the method shown. Sequences can lack the tags named with a protein.

Biological target: T1, GST-Esc2-SLD2m (budding yeast) (UniProt Q06340)
T1 sequence: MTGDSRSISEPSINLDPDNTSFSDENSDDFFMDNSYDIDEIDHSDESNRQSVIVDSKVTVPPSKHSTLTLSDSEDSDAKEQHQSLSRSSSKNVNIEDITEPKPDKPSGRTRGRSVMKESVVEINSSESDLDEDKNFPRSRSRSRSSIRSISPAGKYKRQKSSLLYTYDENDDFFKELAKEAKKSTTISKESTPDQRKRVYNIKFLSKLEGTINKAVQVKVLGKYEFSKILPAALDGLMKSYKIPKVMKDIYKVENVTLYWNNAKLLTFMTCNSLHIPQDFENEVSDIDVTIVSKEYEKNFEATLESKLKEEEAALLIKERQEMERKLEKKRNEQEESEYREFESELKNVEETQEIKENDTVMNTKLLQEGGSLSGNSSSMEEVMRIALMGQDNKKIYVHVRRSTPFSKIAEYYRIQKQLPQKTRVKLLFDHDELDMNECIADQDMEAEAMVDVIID
Test: pull-down; GST or GST-tagged Esc2 or variants (2.2 μM) incubated with 3.6 μM Ubc9 in T buffer (25 mM Tris-Cl pH 7.4, 10% glycerol, 0.5 mM EDTA, 0.01% Igepal, 1 mM DTT) with 80 mM KCl, 30 min at 4 °C; captured on Glutathione Sepharose 4B; SDS-PAGE, Coomassie blue stain; both purified

B1: Ubc9 (SUMO E2) (enzyme, budding yeast, UniProt P50623 1-157, looked up)
chain: MSSLCLQRLQEERKKWRKDHPFGFYAKPVKKADGSMDLQKWEAGIPGKEGTNWAGGVYPITVEYPNEYPSKPPKVKFPAGFYHPNVYPSGTICLSILNEDQDWRPAITLKQIVLGVQDLLDSPNPNSPAQEPAWRSFSRNKAEYDKKVLLQAKQYSK
notes: Ubc9, the SUMO E2 enzyme of budding yeast; source: E. coli, purified (previously published procedures)
Q: With B1 as the binder, how does the binding read?
A: The binding was “no binding (tested: 3.6 μM Ubc9 with 2.2 μM GST-Esc2-SLD2m)”.
